Results from PubChem BioAssay AID493014 (National Center for Advancing Translational Sciences (NCATS), 2011).
About 170 (0.05%) of roughly 340,000 compounds were called active. The shares of active, inactive and inconclusive entries below differ from those in the screen. Calls come from the whole dose curve; as a rule, active = well fitted inhibition curve with a large enough effect in the signal ratio, with a control signal flat (not every such curve was filed as active); inconclusive = small, poorly fitted or top-dose-only effect, or effect the other way, or a change in a side signal; inactive = flat fitted curve, though single readings scatter; the % refers to the signal ratio. Potencies of inconclusive entries are doubtful fits and often do not repeat.

assay: qHTS Assay to Find Inhibitors of Chronic Active B-Cell Receptor Signaling; conditions: ABC-DLBCL IkBa-CBG/CBR reporter, luminescence ratio (green luciferase fused to IkBa over red control in TMD8 lymphoma cells), 4 h; activity change, negative = inhibition: at 46.1 µM (top of the series) unless noted;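 for activity change, negative = inhibition: plate controls were basal doxycycline-induced cells for no effect and cells given 10 µM MG132 for full effect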
Method in brief: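 TMD8 human ABC-DLBCL cells with doxycycline-inducible IκBα–green luciferase fusion and unfused red luciferase, in 0.5% FBS medium; compounds up to 46 uM, 4 h at 37C. Green/red luminescence ratio, filter-overlap corrected, fitted to concentration-response curves.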
Potency is the fitted concentration of half-maximal effect.

| Structure (SMILES) | activity change, negative = inhibition | Potency |
| --- | --- | --- |
| O=c1ccc(S(=O)(=O)N2CCCC2)cn1Cc1ccc(Cl)cc1Cl | inactive: 0.445% |  |
| N#CC1(NC(=O)COC(=O)c2cc(O)c3ccccc3c2O)CCCCC1 | inconclusive: -9.84% |  |
| COc1ccc(CCN2CC(C(=O)NCCc3ccccc3)CC2=O)cc1OC (configuration not stated) | inconclusive: 4.94% |  |
| O=C(CC1SC(N2CCCCC2)=NC1=O)Nc1ccc(C(=O)Nc2ccccc2)cc1 (configuration not stated) | inconclusive: 3.26% |  |
| Cc1nc(C)c(CC(=O)N2CCc3c([nH]c4ccccc34)C2c2ccccn2)s1 (configuration not stated) | inconclusive: -6.21% |  |
| Cc1cccc(NC(=O)C2CCCN(S(=O)(=O)c3ccc4c(c3)oc(=O)n4C)C2)c1 (configuration not stated) | inconclusive: -16.1% |  |
| S=C(NCCCN1CCOCC1)N1CCN(c2cccc(Cl)c2)CC1 | inconclusive: -2.01% |  |
| Cc1ccc(C(=O)N/N=C\c2ccncc2)s1 | inconclusive: 7.94% |  |
| Cc1ccc(C2CC(C(F)(F)F)n3nc(C(=O)NCc4c(C)nn(C)c4C)c(Cl)c3N2)cc1 (configuration not stated) | inconclusive: -23.6% |  |
| O=C1OC(Nc2ccc(F)cc2F)c2ccccc21 (configuration not stated) | inactive: 0.336% |  |
| Nc1c(C(=O)Nc2ccc3c(c2)OCCO3)nnn1Cc1ccc(Br)cc1 | inconclusive: -0.388% |  |
| Cc1cc(C)n2nc(C(=O)Nc3ccc4c(c3)OCCO4)nc2n1 |  | inconclusive: 20.6 µM [falling, single point] |
| COc1ccc(N2Nc3n[nH]c(N)c3N2)cc1 |  | inconclusive: 0.731 µM [falling, full curve, poor fit] |
| O=C(NCc1cccnc1)C(=O)NCC1OCCN1S(=O)(=O)c1ccc(F)cc1 (configuration not stated) | inactive: -0.152% |  |
| CCCCC(=O)OCC(=O)Nc1cccc(S(=O)(=O)NC2=NCCCCC2)c1 |  | inconclusive: 15.8 µM [falling, partial curve] |
| O=C(C(=O)N1CCN(c2cccc(Cl)c2)CC1)c1cn(CC(=O)N2CCOCC2)c2ccccc12 |  | inconclusive: 35.5 µM [falling, single point] |
| c1nc(N2CCCC2)c2[nH]cnc2n1 | inconclusive: 6.26% |  |
| O=C(c1ccc(Cl)cc1)N1CCCOC1 |  | inconclusive: 14.6 µM [rising, partial curve, poor fit] |
| Nc1nc(N)c2sc3nc4c(cc3c2n1)CCC4 | inactive: 10.6% |  |
| CC1CC(C)CN(S(=O)(=O)c2cccc(C(=O)N3CCN(c4ccc(F)cc4)CC3)c2)C1 (configuration not stated) | inactive: 6.51% |  |
| CC(NC(=O)C(=O)c1cn(CC(=O)N2CCOCC2)c2ccccc12)c1ccccc1 (configuration not stated) |  | inconclusive: 15.8 µM [falling, partial curve, poor fit] |
| CCOC(=O)Nc1c(C(=O)OC)[nH]c2cccc(OC)c12 | inconclusive: 3.77% |  |

Reprinted at random: two entries already listed, in no set order.

| Structure (SMILES) | activity change, negative = inhibition | Potency |
| --- | --- | --- |
| O=C(CC1SC(N2CCCCC2)=NC1=O)Nc1ccc(C(=O)Nc2ccccc2)cc1 (configuration not stated) | inconclusive: 3.26% |  |
| Nc1nc(N)c2sc3nc4c(cc3c2n1)CCC4 | inactive: 10.6% |  |
